# Assay results as given in article PMC6532589.
# Construct, isoform or probe ends are uncertain for at least one entry.
# Tested on: thrombin (cited studies)
# Assay: binding assay
# Conditions: free aptamer, exosite II; PBS (1X: 137 mM NaCl, 2.7 mM KCl, 10 mM Na2HPO4, 1.8 mM KH2PO4, pH 7.4) with 100 uM BSA, 30 min; 100 pM Supra-TBA15/29, thrombin 0-1 nM; temperature not stated; native protein; folded or branched DNA; letters put together from the description
sequence,measurement,value
AGTCCGTGGTAGGGCAGGTTGGGGTGACT [TBA29],Kd,0.5 nM
